# In patent publication US20220047556A1 (INSERM (Institut National de la Santé et de la Recherche …, priority 2018, published 2022):
# Test system: PCs activity (MT1-MMP cleavage)
# Details: Western blot, FIG. 1G
compound,measurement,value
"Clc1ccc(CSC(Cn2ccnc2)c2ccc(Cl)cc2Cl)cc1 (stereo not shown) [Sulconazole, 1-[2-[(4-chlorophenyl)methylsulfanyl]-2-(2,4-dichlorophenyl)ethyl]imidazole]","cleavage of MT1-MMP (accumulation of unprocessed form, 63 KDa)",inhibits the cleavage of MT1-MMP
